Experimental data reported in the odorant receptor screen of Mainland et al. (2015).
“And” between values parts separate entries of the source, which are not always exact repeats. Equal entries are not always repeated. This is one part of the list. Single wells; the ratio to wells without odorant was worked out here, and repeats agree poorly.

Experiments:
Assay in all cases: odorant receptor activation (CRE luciferase / Renilla) (fold of no-odor wells); higher = more activation
Settings in all cases: 100 µM
[1] = tested on: OR10A2 H43R/H207R/K258T clone 1498
OR10A2 clone 1171 = tested on: OR10A2 clone 1171
OR10A3 clone 1416 = tested on: OR10A3 clone 1416
OR10A4 R262Q clone 1538 = tested on: OR10A4 R262Q clone 1538
OR10A5 clone 1723 = tested on: OR10A5 clone 1723
OR10A6 clone 1219 = tested on: OR10A6 clone 1219
OR10A7 clone 1252 = tested on: OR10A7 clone 1252
[2] = tested on: OR10AD1 R166Q/S177N/W198R clone 1524
OR10AG1 clone 1251 = tested on: OR10AG1 clone 1251
[3] = tested on: OR10C1 F60L/P174Q/M246V clone 1366
OR10C1 clone 1065 = tested on: OR10C1 clone 1065
OR10G3 S73G clone 1272 = tested on: OR10G3 S73G clone 1272
[4] = tested on: OR10G4 A9V/M134V/V195E/R235G/K295Q clone 1119
OR10G6 clone 1108 = tested on: OR10G6 clone 1108
OR10G7 clone 1589 = tested on: OR10G7 clone 1589
OR10G8 clone 1396 = tested on: OR10G8 clone 1396
[5] = tested on: OR10G9 A90T/M134V clone 1192
OR10H1 clone 1291 = tested on: OR10H1 clone 1291
OR10H2 L40Q clone 1461 = tested on: OR10H2 L40Q clone 1461
OR10H3 clone 1525 = tested on: OR10H3 clone 1525

Structure (SMILES)	odorant receptor activation [1]	odorant receptor activation (OR10A2 clone 1171)	odorant receptor activation (OR10A3 clone 1416)	odorant receptor activation (OR10A4 R262Q clone 1538)	odorant receptor activation (OR10A5 clone 1723)	odorant receptor activation (OR10A6 clone 1219)	odorant receptor activation (OR10A7 clone 1252)	odorant receptor activation [2]	odorant receptor activation (OR10AG1 clone 1251)	odorant receptor activation [3]	odorant receptor activation (OR10C1 clone 1065)	odorant receptor activation (OR10G3 S73G clone 1272)	odorant receptor activation [4]	odorant receptor activation (OR10G6 clone 1108)	odorant receptor activation (OR10G7 clone 1589)	odorant receptor activation (OR10G8 clone 1396)	odorant receptor activation [5]	odorant receptor activation (OR10H1 clone 1291)	odorant receptor activation (OR10H2 L40Q clone 1461)	odorant receptor activation (OR10H3 clone 1525)
COC(=O)c1ccccc1O [methyl salicylate]	0.774	0.704	1.03	0.989	0.811	1.04	0.646	0.941	0.96	0.75	0.942	1.25	1.1	0.986	1.38	1.05	1.27	0.782	0.706	0.94
CC1=CCC(C(C)(C)O)CC1 (stereo not given) [terpineol]	0.874	1.02	1.09	1.13	1.65	1.06	0.907	0.97	1.01	1.02	0.823	0.84	1.05	1.04	1.21	1.21	1.04	0.981	0.627	0.873
CC(=O)OC1CC2CCC1(C)C2(C)C (stereo not given) [isobornyl acetate]	0.516 and 1.23	1.23	0.851	0.728 and 1.25	1.04	0.935	0.812 and 1.09	1.02 and 0.935	1.15 and 0.847	0.808	1.01	1.16 and 1.08	1.06	1.04	5.85	0.749	0.79	1.23 and 1.14	0.62 and 1.08	1.16 and 1.14
CCCCCCCCOC(C)=O [octyl acetate]	0.909	0.918	0.731	0.975	0.726	1.01	1.25	1.14	0.953	1.01	0.837	1.42	0.856	1.1	10	0.996	1.17	0.938	0.915	0.911
c1ccc(Oc2ccccc2)cc1 [diphenyl ether]	1.32	1.07	1.16	1.22	0.708	1.05	0.99	1.15	0.818	0.859	1.08	1.02	0.763	1.08	0.859	1.04	0.984	1.16	1.22	1.11
CCCCCCCCCC=O [decyl aldehyde]	1.41	1.09	1.77	1.5	0.723	1.58	1.31	1.02	1.1	1.32	1.31	1.25	0.946	1.33	0.268	1.41	1.22	1.15	1.27	1.42
CCC1(O)C2(C)CCC(C2)C1(C)C (stereo not given) [2-ethylfenchol]	1.01	0.915	0.779	1.11	0.983	0.613	1.07	1.23	1.58	0.614	3.17	1.32	1.28	33.2	4.58	0.656	0.668	0.657	0.999	1.42
O=C1CCCCCCCCCCCC(=O)OCCO1 [ethylene brassylate]	1.58	1.85	1.92	1.58	0.933	1.89	1.46	1.39	1.61	1.97	1.85	1.5	2.06	1.92	1.01	1.92	1.95	1.27	1.79	1.1
CC/C=C\CCO [cis-3-hexen-1-ol]	1.15	0.91	0.168	1.11	0.699	0.985	0.887	0.957	1.1	0.168	0.961	1.05	1.17	0.883	1.61	0.344	1.05	1.2	1.23	0.909
CCCCCCCCCCC=O [undecanal]	1.17	0.807	1.07	1.1	1.12	1	1.08	1	0.993	0.968	0.778	0.982	1.26	0.937	1.23	0.986	0.963	0.963	1.08	0.961
O=C1CCCCCCCCCCCCCCO1 [pentadecalactone]	1.02	0.717	1.09	1.09	0.846	0.798	0.696	0.85	0.81	1.05	0.951	0.803	0.91	0.809	0.865	1.2	0.65	0.915	0.891	0.681
CC12CCC(C1)C(C)(C)C2=O (stereo not given) [fenchone]	1.16	0.862	0.951	1.52	0.803	0.979	1.06	1.13	0.783	1	1.13	0.984	1.01	1.16	3.2	1.08	0.764	0.849	1.23	1.06
CCCC(=O)O [butyric acid]	1.02	1.04	0.179	0.97	0.447	1.23	0.968	1.24	1.19	0.202	1.09	1.03	1.54	1.35	0.367	0.364	1.09	1.13	1.26	1
CC(=O)C(C)=O [diacetyl]	1.58	1.08	1.21	1.31	0.648	1.38	1.25	1.27	1.34	0.937	1.28	1.39	1.23	0.975	0.336	1.2	0.875	0.943	1.33	1.61
C=C(C)C1CC=C(C)C(=O)C1 (stereo not given) [r-carvone]	0.897	0.729	1.17	0.975	0.773	0.982	0.825	0.882	0.844	1	0.864	0.626	1.01	0.879	0.866	1.29	0.806	1	0.933	1.02
CCCCCC(=O)O [caproic acid]	0.907	1.17	0.137	0.888	0.435	1.1	0.99	1.04	0.926	0.155	1.05	0.92	0.898	0.879	0.418	0.364	1.09	1.1	1.19	0.877
CC(C)C(=O)O [isobutyric acid]	0.7 and 1.03	1.11	1.04	1.47 and 0.938	0.864	0.964	1.07 and 0.984	0.934 and 0.889	0.73 and 1.04	0.78	2.5	1.17 and 0.843	1.27	1.32	11.8	0.603	0.887	1.14 and 1.01	0.738 and 0.933	0.98 and 0.823
CC12CCC(CC1)C(C)(C)O2 [cineole]	0.778	0.881	0.161	0.999	0.701	0.976	0.946	1.04	1	0.148	0.898	0.867	1.12	0.9	1.63	0.314	0.823	1.19	1.38	0.757
CC(=O)OC(C)(C)C1CC=C(C)CC1 (stereo not given) [terpinyl acetate]	1	1.1	0.851	1.48	1.36	1.39	0.802	0.964	0.961	0.837	1.2	0.883	0.896	1.17	1.42	1.06	1.29	0.776	0.925	1.14
CC1CCC(C(C)C)C(O)C1 (single isomer, unassigned; (-)) [(-)-menthol]	0.947	0.949	1.28	1.19	0.759	0.801	0.915	3.68	0.589	0.636	3.71	0.667	0.997	31.9	0.934	0.823	1.07	0.653	2.49	4.49
CC(C)CC(=O)O [isovaleric acid]	0.919	0.86	0.8	1.1	0.984	1.19	0.851	0.954	0.864	0.869	0.95	0.97	1.22	1.4	11.3	0.885	1.33	0.859	0.76	1.06
CCCCCCCCC=O [nonyl aldehyde]	0.909	0.943	0.772	1.25	0.833	0.974	0.984	1.03	0.957	0.934	0.822	1.1	1.23	1.06	13.2	0.886	1.12	0.988	1.06	1.03
C=CC(C)(O)CCC=C(C)C (stereo not given) [linalool]	1.12	0.947	0.768	1.08	0.855	1.17	1.15	1.09	0.878	0.869	1.06	1.01	1	1.18	4.24	0.943	0.971	0.907	0.99	0.927
c1cnccn1 [pyrazine]	0.885	0.756	1.05	1.06	0.915	0.82	0.871	0.725	0.803	0.854	1.04	0.801	0.932	0.985	0.87	1.09	0.878	1.01	0.883	0.91
CC(C)=CCCC(C)=CC=O [citral]	1.21	1.16	0.199	0.877	1.15	1.12	1.08	1.04	1.29	0.231	1.2	1.21	1.42	1.2	0.206	0.344	1.15	1.46	1.24	0.935
CC(C)C=O [isobutyraldehyde]	0.529 and 1.05	1.26	0.905	0.959 and 1.36	0.908	1.03	0.719 and 0.958	1.27 and 1.14	0.773 and 1.03	0.924	1.25	1.33 and 0.934	0.914	1.05	8.61	0.811	0.72	1.61 and 0.974	0.61 and 0.969	1.03 and 1.14

Entries of single compounds as entered above. Order of values: odorant receptor activation [1] | odorant receptor activation (OR10A2 clone 1171) | odorant receptor activation (OR10A3 clone 1416) | odorant receptor activation (OR10A4 R262Q clone 1538) | odorant receptor activation (OR10A5 clone 1723) | odorant receptor activation (OR10A6 clone 1219) | odorant receptor activation (OR10A7 clone 1252) | odorant receptor activation [2] | odorant receptor activation (OR10AG1 clone 1251) | odorant receptor activation [3] | odorant receptor activation (OR10C1 clone 1065) | odorant receptor activation (OR10G3 S73G clone 1272) | odorant receptor activation [4] | odorant receptor activation (OR10G6 clone 1108) | odorant receptor activation (OR10G7 clone 1589) | odorant receptor activation (OR10G8 clone 1396) | odorant receptor activation [5] | odorant receptor activation (OR10H1 clone 1291) | odorant receptor activation (OR10H2 L40Q clone 1461) | odorant receptor activation (OR10H3 clone 1525)
CC(C)C=O [isobutyraldehyde] in the list: 0.529 and 1.05 | 1.26 | 0.905 | 0.959 and 1.36 | 0.908 | 1.03 | 0.719 and 0.958 | 1.27 and 1.14 | 0.773 and 1.03 | 0.924 | 1.25 | 1.33 and 0.934 | 0.914 | 1.05 | 8.61 | 0.811 | 0.72 | 1.61 and 0.974 | 0.61 and 0.969 | 1.03 and 1.14
CC(=O)OC(C)(C)C1CC=C(C)CC1 (stereo not given) [terpinyl acetate] in the list: 1 | 1.1 | 0.851 | 1.48 | 1.36 | 1.39 | 0.802 | 0.964 | 0.961 | 0.837 | 1.2 | 0.883 | 0.896 | 1.17 | 1.42 | 1.06 | 1.29 | 0.776 | 0.925 | 1.14
